The other results are listed elsewhere or left out.
What was measured:
Experiment in all cases: log2 fold change, soluble protein after heating vs DMSO (PISA); higher = thermal stabilisation; K562 lysate, 10 uM; active = over 0.2 and 3.5 SD of the protein, either way, in both replicates (recomputed)
[1] = compound: C1=CC=C(C=C1)[C@H](COC2=CC3=C(C=C2)NC(=O)N3)NC(=O)C4=CC=CN(C4=O)CC5=CC(=C(C=C5)F)F
Summary of the method: (§1)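 Soluble protein was defined as the supernatant remaining after 21,000xg for 90 min, following pooling of heated aliquots and adjustment to 0.5% NP-40 at 4°C. Before that, crude K562 extract at 1 mg/mL protein in PBS pH 7.4 with 1 mM MgCl2 was treated with 10 μM compound for 30 min and heated for 3 min across 48°C-58°C. Quantification used TMTpro 16plex LC-MS/MS with channel sums equalised, and values are log-two fold changes in thermal stability relative to solvent controls from duplicates.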

Sequences of proteins named here, by UniProt entry; tags and fusion partners are left off. A change or cut given only in a name is not applied to a line headed by its entry.
UniProt Q96NB3: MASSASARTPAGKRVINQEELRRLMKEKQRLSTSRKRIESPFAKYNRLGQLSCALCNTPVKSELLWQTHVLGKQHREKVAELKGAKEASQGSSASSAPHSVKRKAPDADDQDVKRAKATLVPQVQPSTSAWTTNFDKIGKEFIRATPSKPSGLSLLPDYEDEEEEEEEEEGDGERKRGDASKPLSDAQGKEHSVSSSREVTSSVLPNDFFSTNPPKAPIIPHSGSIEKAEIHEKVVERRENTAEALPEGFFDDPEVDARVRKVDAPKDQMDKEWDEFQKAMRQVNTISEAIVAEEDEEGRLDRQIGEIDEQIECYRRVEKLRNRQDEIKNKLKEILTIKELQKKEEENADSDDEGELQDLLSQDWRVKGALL
UniProt Q9BU19: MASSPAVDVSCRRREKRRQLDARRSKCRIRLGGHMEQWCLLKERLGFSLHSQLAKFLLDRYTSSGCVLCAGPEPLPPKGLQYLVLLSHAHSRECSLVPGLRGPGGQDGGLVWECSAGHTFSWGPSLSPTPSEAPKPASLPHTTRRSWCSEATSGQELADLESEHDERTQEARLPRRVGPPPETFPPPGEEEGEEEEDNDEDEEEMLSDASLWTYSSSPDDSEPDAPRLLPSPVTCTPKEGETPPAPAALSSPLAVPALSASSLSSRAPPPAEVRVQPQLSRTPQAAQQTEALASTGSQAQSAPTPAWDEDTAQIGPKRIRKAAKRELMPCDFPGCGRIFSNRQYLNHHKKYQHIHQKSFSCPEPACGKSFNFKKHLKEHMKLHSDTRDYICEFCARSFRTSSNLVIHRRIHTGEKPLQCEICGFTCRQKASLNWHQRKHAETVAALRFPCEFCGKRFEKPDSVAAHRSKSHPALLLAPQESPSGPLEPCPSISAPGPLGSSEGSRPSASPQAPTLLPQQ
UniProt Q9UJ78: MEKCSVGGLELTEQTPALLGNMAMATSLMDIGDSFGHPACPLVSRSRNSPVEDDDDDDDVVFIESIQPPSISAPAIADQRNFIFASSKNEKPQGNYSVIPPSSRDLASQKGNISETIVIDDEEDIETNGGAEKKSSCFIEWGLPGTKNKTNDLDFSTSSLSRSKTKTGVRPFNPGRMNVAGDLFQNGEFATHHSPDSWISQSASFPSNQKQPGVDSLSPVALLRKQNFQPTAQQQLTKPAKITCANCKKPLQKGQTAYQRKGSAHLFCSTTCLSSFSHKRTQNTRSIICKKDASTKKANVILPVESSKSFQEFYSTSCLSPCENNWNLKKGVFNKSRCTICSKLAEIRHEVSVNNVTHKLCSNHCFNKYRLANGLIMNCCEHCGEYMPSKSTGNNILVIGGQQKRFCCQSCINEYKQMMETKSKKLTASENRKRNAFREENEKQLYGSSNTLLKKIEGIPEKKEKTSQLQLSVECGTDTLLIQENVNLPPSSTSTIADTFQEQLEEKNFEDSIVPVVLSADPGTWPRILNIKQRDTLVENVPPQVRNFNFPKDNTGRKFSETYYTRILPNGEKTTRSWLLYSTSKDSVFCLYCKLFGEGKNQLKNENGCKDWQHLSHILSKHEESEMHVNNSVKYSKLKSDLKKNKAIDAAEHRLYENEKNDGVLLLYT
UniProt O43149: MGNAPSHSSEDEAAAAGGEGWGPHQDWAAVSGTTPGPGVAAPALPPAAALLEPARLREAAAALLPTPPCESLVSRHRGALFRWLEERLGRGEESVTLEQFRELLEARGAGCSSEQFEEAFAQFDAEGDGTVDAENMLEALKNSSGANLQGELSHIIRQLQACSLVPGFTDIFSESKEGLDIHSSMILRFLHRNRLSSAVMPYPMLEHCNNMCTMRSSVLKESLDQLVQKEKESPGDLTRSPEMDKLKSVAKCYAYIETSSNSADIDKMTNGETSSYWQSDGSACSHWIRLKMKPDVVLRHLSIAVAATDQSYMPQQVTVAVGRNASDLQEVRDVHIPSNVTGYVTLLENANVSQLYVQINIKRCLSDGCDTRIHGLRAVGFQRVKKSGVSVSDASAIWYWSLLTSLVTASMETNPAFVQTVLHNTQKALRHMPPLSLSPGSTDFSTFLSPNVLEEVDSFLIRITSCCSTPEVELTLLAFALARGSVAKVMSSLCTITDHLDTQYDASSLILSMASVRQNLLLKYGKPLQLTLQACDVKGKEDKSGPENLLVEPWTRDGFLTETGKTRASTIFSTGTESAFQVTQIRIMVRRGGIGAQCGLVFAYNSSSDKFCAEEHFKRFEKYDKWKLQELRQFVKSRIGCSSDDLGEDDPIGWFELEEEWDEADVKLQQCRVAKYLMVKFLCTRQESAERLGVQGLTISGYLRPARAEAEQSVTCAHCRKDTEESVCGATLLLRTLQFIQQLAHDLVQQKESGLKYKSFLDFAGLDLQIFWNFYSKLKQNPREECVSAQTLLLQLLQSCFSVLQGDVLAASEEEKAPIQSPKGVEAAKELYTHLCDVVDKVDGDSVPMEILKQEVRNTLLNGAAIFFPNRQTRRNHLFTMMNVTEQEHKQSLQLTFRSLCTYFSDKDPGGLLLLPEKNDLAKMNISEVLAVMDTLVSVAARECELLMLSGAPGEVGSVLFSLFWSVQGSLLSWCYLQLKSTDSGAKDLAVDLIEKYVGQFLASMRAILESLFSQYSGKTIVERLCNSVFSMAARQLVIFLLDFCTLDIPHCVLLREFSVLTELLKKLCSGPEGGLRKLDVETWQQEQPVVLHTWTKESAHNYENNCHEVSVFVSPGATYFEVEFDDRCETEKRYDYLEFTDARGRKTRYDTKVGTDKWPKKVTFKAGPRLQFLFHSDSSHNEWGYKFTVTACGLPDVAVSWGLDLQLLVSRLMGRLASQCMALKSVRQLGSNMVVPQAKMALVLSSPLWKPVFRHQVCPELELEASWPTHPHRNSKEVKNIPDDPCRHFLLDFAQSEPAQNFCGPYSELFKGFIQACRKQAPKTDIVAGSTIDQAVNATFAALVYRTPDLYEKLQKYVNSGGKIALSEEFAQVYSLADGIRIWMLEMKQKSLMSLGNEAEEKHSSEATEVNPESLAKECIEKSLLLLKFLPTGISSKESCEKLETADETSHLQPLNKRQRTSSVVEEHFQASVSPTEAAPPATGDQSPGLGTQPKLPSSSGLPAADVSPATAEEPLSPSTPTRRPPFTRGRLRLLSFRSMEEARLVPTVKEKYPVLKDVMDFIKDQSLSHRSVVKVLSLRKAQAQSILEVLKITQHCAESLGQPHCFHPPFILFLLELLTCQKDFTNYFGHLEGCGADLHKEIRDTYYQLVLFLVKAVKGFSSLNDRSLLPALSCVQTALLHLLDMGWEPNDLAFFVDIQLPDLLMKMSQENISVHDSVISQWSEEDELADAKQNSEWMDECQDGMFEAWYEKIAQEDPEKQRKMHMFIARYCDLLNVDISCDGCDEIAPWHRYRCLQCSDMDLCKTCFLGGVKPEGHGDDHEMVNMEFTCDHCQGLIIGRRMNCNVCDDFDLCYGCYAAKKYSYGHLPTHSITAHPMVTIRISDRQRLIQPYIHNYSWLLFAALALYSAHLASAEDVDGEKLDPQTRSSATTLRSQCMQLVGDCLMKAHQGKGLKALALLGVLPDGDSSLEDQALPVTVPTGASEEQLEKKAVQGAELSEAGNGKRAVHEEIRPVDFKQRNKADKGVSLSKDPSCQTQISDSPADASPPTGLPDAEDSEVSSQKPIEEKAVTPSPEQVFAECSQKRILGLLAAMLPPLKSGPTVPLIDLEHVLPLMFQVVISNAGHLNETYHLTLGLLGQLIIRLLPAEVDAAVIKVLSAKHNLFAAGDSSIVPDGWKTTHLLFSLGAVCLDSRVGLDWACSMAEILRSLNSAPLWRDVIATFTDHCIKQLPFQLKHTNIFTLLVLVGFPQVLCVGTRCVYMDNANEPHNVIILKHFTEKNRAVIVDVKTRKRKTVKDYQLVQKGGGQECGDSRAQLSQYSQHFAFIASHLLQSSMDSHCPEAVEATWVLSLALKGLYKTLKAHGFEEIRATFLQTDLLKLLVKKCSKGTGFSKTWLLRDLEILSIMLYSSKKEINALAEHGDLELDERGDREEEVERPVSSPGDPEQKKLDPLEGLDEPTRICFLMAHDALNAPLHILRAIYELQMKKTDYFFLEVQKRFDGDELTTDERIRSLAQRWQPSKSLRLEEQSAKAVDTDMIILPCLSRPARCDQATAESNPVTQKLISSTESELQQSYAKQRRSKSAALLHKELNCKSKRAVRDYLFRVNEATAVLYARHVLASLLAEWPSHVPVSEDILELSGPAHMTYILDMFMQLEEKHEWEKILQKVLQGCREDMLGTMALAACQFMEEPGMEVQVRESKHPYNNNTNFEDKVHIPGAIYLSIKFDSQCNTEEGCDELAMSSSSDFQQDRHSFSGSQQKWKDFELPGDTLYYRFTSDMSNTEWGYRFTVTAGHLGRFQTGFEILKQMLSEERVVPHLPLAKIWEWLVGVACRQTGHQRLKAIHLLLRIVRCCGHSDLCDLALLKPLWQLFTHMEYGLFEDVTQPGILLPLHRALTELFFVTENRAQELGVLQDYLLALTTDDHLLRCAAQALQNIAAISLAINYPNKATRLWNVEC
UniProt Q6WRX3: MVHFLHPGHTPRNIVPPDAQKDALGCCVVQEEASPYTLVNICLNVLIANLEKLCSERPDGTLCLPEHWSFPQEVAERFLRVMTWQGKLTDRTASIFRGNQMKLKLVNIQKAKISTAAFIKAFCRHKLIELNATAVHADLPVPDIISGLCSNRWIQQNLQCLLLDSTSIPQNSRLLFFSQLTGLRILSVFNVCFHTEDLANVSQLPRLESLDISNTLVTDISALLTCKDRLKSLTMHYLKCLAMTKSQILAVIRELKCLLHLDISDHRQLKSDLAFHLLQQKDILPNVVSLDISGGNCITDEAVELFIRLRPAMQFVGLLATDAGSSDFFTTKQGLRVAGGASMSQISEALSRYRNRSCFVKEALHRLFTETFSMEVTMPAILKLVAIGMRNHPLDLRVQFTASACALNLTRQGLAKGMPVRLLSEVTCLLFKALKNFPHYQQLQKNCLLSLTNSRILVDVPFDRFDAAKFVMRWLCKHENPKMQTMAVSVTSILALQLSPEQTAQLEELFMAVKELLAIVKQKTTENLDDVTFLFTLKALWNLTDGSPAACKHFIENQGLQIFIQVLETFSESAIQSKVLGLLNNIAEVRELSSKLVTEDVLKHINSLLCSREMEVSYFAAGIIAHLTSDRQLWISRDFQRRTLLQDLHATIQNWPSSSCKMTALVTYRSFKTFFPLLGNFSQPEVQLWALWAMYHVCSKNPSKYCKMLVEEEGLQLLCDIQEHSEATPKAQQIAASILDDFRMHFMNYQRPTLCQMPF
UniProt O43264: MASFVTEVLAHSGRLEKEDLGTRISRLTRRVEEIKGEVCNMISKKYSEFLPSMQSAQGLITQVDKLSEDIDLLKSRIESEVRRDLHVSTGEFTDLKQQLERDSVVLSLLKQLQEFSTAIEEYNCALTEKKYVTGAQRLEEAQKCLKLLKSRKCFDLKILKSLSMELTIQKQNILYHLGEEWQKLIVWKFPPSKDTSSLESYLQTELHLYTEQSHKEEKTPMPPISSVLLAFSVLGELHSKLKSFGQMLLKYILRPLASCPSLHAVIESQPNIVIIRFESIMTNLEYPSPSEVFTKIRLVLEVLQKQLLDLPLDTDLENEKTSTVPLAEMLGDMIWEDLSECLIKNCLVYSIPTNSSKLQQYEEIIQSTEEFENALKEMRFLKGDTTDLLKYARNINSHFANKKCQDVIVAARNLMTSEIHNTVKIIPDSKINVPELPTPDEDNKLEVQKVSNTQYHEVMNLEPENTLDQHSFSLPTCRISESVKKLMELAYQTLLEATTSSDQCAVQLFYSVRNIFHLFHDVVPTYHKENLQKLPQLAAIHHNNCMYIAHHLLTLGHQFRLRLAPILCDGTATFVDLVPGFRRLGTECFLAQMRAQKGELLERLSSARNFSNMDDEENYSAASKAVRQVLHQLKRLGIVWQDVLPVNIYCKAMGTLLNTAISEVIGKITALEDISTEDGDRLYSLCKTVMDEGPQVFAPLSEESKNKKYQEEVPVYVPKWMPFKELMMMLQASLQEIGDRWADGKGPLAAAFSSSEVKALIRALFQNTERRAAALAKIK
UniProt Q96BR6: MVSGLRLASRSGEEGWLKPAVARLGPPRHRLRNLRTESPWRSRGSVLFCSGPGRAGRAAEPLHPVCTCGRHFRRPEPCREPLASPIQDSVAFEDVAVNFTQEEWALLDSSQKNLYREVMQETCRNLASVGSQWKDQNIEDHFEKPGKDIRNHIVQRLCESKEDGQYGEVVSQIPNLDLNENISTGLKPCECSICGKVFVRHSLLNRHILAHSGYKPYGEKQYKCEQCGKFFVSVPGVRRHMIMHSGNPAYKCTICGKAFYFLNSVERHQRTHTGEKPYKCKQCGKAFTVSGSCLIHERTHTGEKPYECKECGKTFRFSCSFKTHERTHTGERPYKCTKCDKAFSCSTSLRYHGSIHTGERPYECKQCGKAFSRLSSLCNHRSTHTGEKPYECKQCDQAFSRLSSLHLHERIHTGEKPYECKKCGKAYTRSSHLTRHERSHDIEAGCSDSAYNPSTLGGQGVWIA

[2] = compound: CC1=C(SC2=C1C(=N[C@H](C3=NN=C(N32)C)CC(=O)N)C4=CC=C(C=C4)Cl)C
Summary of the method: as §1

[3] = compound: CC1=C2C(=CC=C1)N=C(N(C2=O)C3=CC=CC=C3C)CN4C=NC5=C(N=CN=C54)N
Summary of the method: as §1

[4] = compound: Cc1sc2c(c1C)C(c1ccc(Cl)cc1)=N[C@@H](CC(=O)OC(C)(C)C)c1nnc(C)n1-2
Summary of the method: as §1

[5] = compound: c1ccc([C@@H]2C[C@H]2NC2CCNCC2)cc1
Summary of the method: as §1

Target | log2 fold change [1] | log2 fold change [2] | log2 fold change [3] | log2 fold change [4] | log2 fold change [5]
ZNHIT3 (UniProt Q15649) | inactive: 0.037 | inactive: 0.064 | inactive: -0.005 | inactive: -0.009 | inactive: -0.194
ZNFX1 (UniProt Q9P2E3) | inactive: 0.018 | inactive: 0.062 | inactive: 0.072 | inactive: 0.051 | inactive: 0.086
ZNF316 (UniProt A6NFI3) | inactive: -0.011 | inactive: -0.012 | inactive: -0.004 | inactive: 0.11 | inactive: -0.049
ZNF622 (UniProt Q969S3) | inactive: 0.045 | inactive: 0.034 | inactive: 0 | inactive: 0.012 | inactive: 0.039
ZNF830 (UniProt Q96NB3) | inactive: -0.004 | inactive: 0.002 | inactive: -0.018 | inactive: -0.023 | inactive: 0.031
ZNF22 (UniProt P17026) | inactive: 0.082 | inactive: 0.044 | inactive: -0.518 | inactive: -0.077 | inactive: -0.042
ZNF845 (UniProt Q96IR2) | inactive: -0.239 | inactive: 0.048 | inactive: 0.114 | inactive: -0.058 | inactive: 0.083
ZKSCAN8 (UniProt Q15776) | – | – | inactive: -0.065 | inactive: -0.026 | –
ZMYM1 (UniProt Q5SVZ6) | inactive: 0.009 | inactive: 0.099 | inactive: -0.012 | inactive: 0 | inactive: -0.2
ZKSCAN4 (UniProt Q969J2) | – | – | inactive: -0.091 | – | –
ZNF592 (UniProt Q92610) | inactive: 0.103 | inactive: 0.061 | – | inactive: 0.041 | inactive: -0.027
ZNF74 isoform 5 (UniProt Q16587) | inactive: 0.079 | inactive: -0.013 | – | inactive: 0.06 | inactive: 0.04
ZNF692 isoform 5 (UniProt Q9BU19) | – | – | inactive: 0.077 | inactive: 0.061 | –
ZNF771 (UniProt Q7L3S4) | inactive: 0.061 | inactive: 0.065 | – | – | inactive: -0.032
ZNF708 (UniProt P17019) | – | – | inactive: 0.071 | – | –
ZNF654, A0A1B0GWA0 | inactive: 0.044 | inactive: -0.023 | – | – | inactive: -0.006
ZNF207 isoform 4 (UniProt O43670) | inactive: 0.027 | inactive: -0.009 | inactive: -0.026 | inactive: -0.018 | inactive: -0.064
ZNF217 (UniProt O75362) | inactive: -0.037 | inactive: 0.075 | inactive: 0.129 | inactive: 0.053 | inactive: 0
ZNF239 (UniProt Q16600) | inactive: -0.06 | inactive: -0.041 | inactive: -0.075 | – | inactive: 0.116
ZMYM5 (UniProt Q9UJ78) | – | – | inactive: 0.037 | – | –

Copied from the entries so far for reference:
Target | log2 fold change [1] | log2 fold change [2] | log2 fold change [3] | log2 fold change [4] | log2 fold change [5]
ZNFX1 (UniProt Q9P2E3) | inactive: 0.018 | inactive: 0.062 | inactive: 0.072 | inactive: 0.051 | inactive: 0.086
ZNF316 (UniProt A6NFI3) | inactive: -0.011 | inactive: -0.012 | inactive: -0.004 | inactive: 0.11 | inactive: -0.049

Later entries.

Target | log2 fold change [1] | log2 fold change [2] | log2 fold change [3] | log2 fold change [4] | log2 fold change [5]
hCG_1984214 (UniProt I3L0E3) | inactive: 0.006 | inactive: 0.001 | inactive: 0.054 | inactive: 0.099 | inactive: -0.007
ZMYM3 (UniProt Q14202) | inactive: -0.004 | inactive: -0.033 | inactive: -0.014 | inactive: -0.006 | inactive: 0.01
ZNF627 (UniProt Q7L945) | inactive: 0.026 | inactive: -0.029 | – | – | inactive: 0.06
ZNF444 (UniProt Q8N0Y2) | inactive: -0.153 | inactive: 0.092 | – | inactive: -0.048 | inactive: -0.073
ZNF76 (UniProt P36508) | – | – | inactive: 0.054 | – | –
ZZEF1 (UniProt O43149) | inactive: -0.022 | inactive: -0.004 | inactive: 0.012 | inactive: -0.05 | inactive: -0.028
ZYG11A (UniProt Q6WRX3) | inactive: -0.075 | inactive: -0.13 | – | – | inactive: -0.012
ZNHIT2 (UniProt Q9UHR6) | inactive: -0.143 | inactive: 0.119 | inactive: 0.108 | inactive: -0.024 | inactive: -0.291
ZW10 (UniProt O43264) | inactive: -0.003 | inactive: -0.011 | inactive: 0.04 | inactive: -0.005 | inactive: 0.019
ZNF148 (UniProt Q9UQR1) | inactive: -0.082 | inactive: 0.148 | inactive: -0.023 | inactive: 0.025 | inactive: 0.143
ZNRF2 (UniProt Q8NHG8) | inactive: 0.138 | inactive: -0.442 | inactive: -0.008 | – | inactive: -0.201
ZNF574 isoform 2 (UniProt Q6ZN55) | inactive: -0.058 | inactive: -0.006 | – | – | inactive: 0
ZNF669 (UniProt Q96BR6) | inactive: 0.008 | inactive: -0.005 | – | inactive: -0.116 | inactive: 0.061
ZKSCAN3 (UniProt Q9BRR0) | inactive: -0.103 | inactive: -0.12 | inactive: 0.089 | inactive: -0.043 | inactive: 0.025
ZNF280B (UniProt Q86YH2) | inactive: -0.055 | inactive: 0.053 | inactive: 0.145 | – | inactive: 0.059
ZNF77 (UniProt Q15935) | – | – | inactive: -0.178 | – | –
ZNF346 (UniProt Q9UL40) | inactive: 0.031 | inactive: -0.017 | – | active: -0.205 | inactive: -0.086
ZNF131 (UniProt P52739) | inactive: 0.044 | inactive: 0.04 | inactive: -0.028 | inactive: -0.024 | inactive: -0.076
ZNRD2 (UniProt G3V1B8) | inactive: -0.217 | inactive: 0 | inactive: 0.088 | inactive: 0.048 | inactive: -0.083
